Tested on: E. coli ATCC 25922
Assay: RNA-seq transcriptome response
Format: cell-based, Escherichia coli
Details: 4× MIC, 2 hours, vs untreated
Experimental: After exposure, 1-ml aliquots of cells were immediately pelleted at 4°C by centrifugation for 2 min at 2000 rpm. The supernatants were removed and immediately frozen in liquid nitrogen. The samples were stored at −80°C for later total RNA isolation. Total RNA was extracted using the bacterial RNA kit (Omega Bio-Tek, USA) according to the manufacturer’s instructions. The RNA integrity number values were obtained to assess RNA quality using an Agilent Genomics 2200 Tape Station instrument.
A total amount of 2 to 5 ng of the RNA per sample was executed as the input material to construct each cDNA library for RNA-seq using the NEBNext Ultra Directional RNA Library prep kit from Illumina. The quality of the resulting libraries was checked using Agilent High Sensitivity DNA chips to ensure proper library size distribution and the absence of small adapters.
Read mapping was aligned using Bowtie2 ([74]). HTSeq v0.6.1 was used for quantification of expression levels ([75]). DESeq2 on the R package (v1.12.4) was used to calculate DEGs. Differential expression was computed using edgeR: exactTest for each treatment versus the untreated control ([76]). The E. coli database used for mapping was GCF_017357505.1_ASM1735750v1_genomic.fna. Both the GO and KEGG (KEGG Ortholog database) enrichment analyses were done with the Fisher’s exact test. […]

Structure (SMILES): O=C(O)c1cn(C2CC2)c2cc(N3CCNCC3)c(F)cc2c1=O [CPF, ciprofloxacin, reference compound]
- Log2FC cspE (transcription antiterminator/RNA stability regulator CspE): -1.4229
- Log2FC holC (DNA polymerase III subunit chi): 1.1039

Source: paper PMC11881906, “Development of xanthone derivatives as effective broad-spectrum antimicrobials: Disrupting cell wall and inhibiting DNA synthesis” (Science Advances, 2025)
